# Results of single-concentration screens

Protein sequences, listed by entry. Tags and fused reporters are not part of them.
UniProt P9WFT3, whole entry: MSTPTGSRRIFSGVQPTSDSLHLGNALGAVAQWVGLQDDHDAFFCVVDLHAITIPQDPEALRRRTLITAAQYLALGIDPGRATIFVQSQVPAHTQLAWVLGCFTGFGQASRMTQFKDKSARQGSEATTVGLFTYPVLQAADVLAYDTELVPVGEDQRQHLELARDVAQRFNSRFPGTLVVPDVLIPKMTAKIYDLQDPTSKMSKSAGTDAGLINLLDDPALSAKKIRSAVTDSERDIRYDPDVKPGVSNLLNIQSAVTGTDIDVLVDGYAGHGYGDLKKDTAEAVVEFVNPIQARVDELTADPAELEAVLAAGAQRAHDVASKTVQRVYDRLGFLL
UniProt P9WNZ1, whole entry: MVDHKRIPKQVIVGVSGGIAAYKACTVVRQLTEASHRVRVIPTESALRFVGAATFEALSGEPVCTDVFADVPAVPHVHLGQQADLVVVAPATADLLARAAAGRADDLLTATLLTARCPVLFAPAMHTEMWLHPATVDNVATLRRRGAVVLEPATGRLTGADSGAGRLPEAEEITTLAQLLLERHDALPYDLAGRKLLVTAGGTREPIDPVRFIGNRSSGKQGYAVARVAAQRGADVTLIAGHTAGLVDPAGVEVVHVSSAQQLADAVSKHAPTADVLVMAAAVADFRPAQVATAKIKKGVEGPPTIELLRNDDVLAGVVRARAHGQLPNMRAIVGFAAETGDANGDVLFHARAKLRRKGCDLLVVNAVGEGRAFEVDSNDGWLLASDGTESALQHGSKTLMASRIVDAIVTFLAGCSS
UniProt P9WPC5, whole entry: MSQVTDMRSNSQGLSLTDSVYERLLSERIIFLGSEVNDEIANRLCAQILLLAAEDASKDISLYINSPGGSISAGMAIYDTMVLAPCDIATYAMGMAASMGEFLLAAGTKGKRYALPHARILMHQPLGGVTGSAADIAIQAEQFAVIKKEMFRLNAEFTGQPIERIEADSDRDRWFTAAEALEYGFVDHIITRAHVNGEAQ
UniProt P9WPC3, whole entry partner: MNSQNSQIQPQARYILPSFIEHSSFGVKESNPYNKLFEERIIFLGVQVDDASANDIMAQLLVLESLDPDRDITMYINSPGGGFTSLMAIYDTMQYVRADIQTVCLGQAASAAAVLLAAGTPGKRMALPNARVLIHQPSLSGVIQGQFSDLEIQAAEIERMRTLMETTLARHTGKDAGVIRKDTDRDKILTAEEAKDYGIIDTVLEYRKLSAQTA

From ChEMBL document CHEMBL3988442, “University of Dundee, Small-Polar-MMV Screening Library” (2021).

MtTrpRS: 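Enzyme assay of tryptophanyl-tRNA synthetase; the read-out is not stated. Target: Tryptophan-tRNA ligase, Mycobacterium tuberculosis (UniProt P9WFT3). Concentration: 10 µM. Direction is not recorded; retested compounds ran higher, which suggests that high means inhibition. Size under these conditions: about 65,000 compounds, about 64 of them at 50% or above in at least one test.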
CoaBC: 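Coenzyme A biosynthesis protein CoaBC, Mycobacterium tuberculosis (UniProt P9WNZ1). Enzyme assay of CoaBC with a phosphate dye (Biomol Green) read at 650 nm. Concentration: 30 µM. Higher reads as stronger inhibition, judged from the few compounds that gave an IC50. Most strong results did not repeat in a second test. Size under these conditions: about 67,000 compounds, about 40 of them at 50% or above in at least one test.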
ClpP1P2: 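ClpP1P2, Mycobacterium tuberculosis (UniProt P9WPC5 and UniProt P9WPC3). Protease assay of ClpP1P2, read by the AMC dye that it sets free. Compounds at 50 µM. Direction is inferred from only a few compounds that gave an IC50; most scored high, so higher reads as stronger inhibition. Most other retested compounds had strongly negative values. Of about 69,000 compounds tested this way, about 10 (0.015%) reached 50% or more in at least one test.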

The filed quantity is “Percent Effect” (%). How 0% and 100% were set is not recorded. Most values in the screen are low, and negative values occur. This is an unselected part of the compounds tested. A dash means the value is not listed here; it may have been measured.

| compound | MtTrpRS | CoaBC | ClpP1P2 |
|---|---|---|---|
| `COc1ccc(C(C)=O)cc1CN1CCn2cccc2C1C` (stereo not shown) | 1.376 | -9.091 | 20.54 |
| `Cc1noc(C)c1CN1CCO[C@H]2CN(Cc3cnn(C)c3)C[C@H]21` | 1.591 | -5.732 | 10.71 |
| `CN(C)CCOc1ccccc1N1CCN(C(=O)C(C)(C)C#N)CC1` | 2.926 | - | 11.67 |
| `CC(C)c1nc(C2CCCN(C(=O)CCn3ccnc3)C2)no1` (stereo not shown) | -1.33 | -0.3559 | 19.53 |
| `Cn1nc2c(c1NC(=O)c1ccc(C3CCCN3C3CCC3)s1)CCC2` (stereo not shown) | -0.3215 | 3.524 | -8.629 |
| `Cc1nc(C)n(CC2CCCN(c3ccnc(-c4ccccc4)n3)C2)n1` (stereo not shown) | -6.972 | 6.773 | -4.173 |
| `O=C(c1ccnnc1)N1CCN2C[C@H](Oc3cccc(F)c3)C[C@H]2C1` | -1.574 | 4.949 | 7.36 |
| `Cc1cccc(Nc2cccc(C3CCCN(Cc4ncc[nH]4)C3)n2)n1` (stereo not shown) | -5.02 | 8.282 | -5.65 |
| `N#Cc1ccc(OCCCN2CCOC(Cn3cncn3)C2)cc1` (stereo not shown) | 20.3 | 7.826 | 2.068 |
| `CN(CC1(O)CCCN(c2ccccn2)C1)C(=O)CC1CCOCC1` (stereo not shown) | - | 4.833 | -6.022 |
| `CN(C)c1ccc(CC(=O)N2CCOCC(O)C2)cc1` (stereo not shown) | -1.053 | -1.707 | 2.02 |
| `CCCNc1ncc(CN2C[C@H]3CC[C@@H]2CN(C2CCOCC2)C3)cn1` | 0.5093 | 0 | -0.4803 |
| `COCC1CC2(CCN(Cc3ccncc3)CC2)CN1C(C)C` (stereo not shown) | -0.5231 | 4.622 | 1.652 |
| `Cc1cccc(NC(=O)C(C)Nc2cccc(CN3CCOC3=O)c2)c1` (stereo not shown) | -1.471 | 2.632 | 1.376 |
| `CN(C)c1nc(N)nc(CN2CCC(c3ccccc3)CC2)n1` | 1.891 | 1.595 | 4.744 |
| `CCc1nnc(C2Cc3ccccc3CN2Cc2nc(C3CC3)no2)o1` (stereo not shown) | 4.129 | 0.9938 | -7.487 |
| `Cc1csc2c(=O)n3c(nc12)CCN(C(=O)c1cccnc1)CC3` | 0.2508 | 2.778 | 7.467 |
| `CN1CCCC(N2CCN(c3nc4ccccn4c3C#N)CC2)C1` (stereo not shown) | 8.922 | -21.79 | -11.49 |
| `COCCC1(CO)CCCN(Cc2ccc(C#N)cc2)C1` (stereo not shown) | -0.5947 | 8.411 | -8.73 |
| `OC[C@@H]1CCCN1c1nccc(-c2c[nH]nc2-c2ccncc2)n1` | - | -5.181 | -6.344 |
| `FC(F)(F)CN1CCC(CCNc2ncccn2)CC1` | -0.1833 | -1.463 | -0.9633 |
| `CC(=O)NC1CCCN(Cc2ccc(OCc3ccccn3)cc2)C1` (stereo not shown) | -0.3673 | 2.056 | -0.3354 |
| `O=C(CN1CCOC1=O)N(Cc1ccccc1)Cc1nccs1` | -5.012 | 9.136 | -8.063 |
| `OCC1CCCN1c1cc(N2CCN(c3ccccn3)CC2)ncn1` (stereo not shown) | -0.7037 | 7.179 | -3.129 |
| `Cc1cc(-c2cc(S(=O)(=O)N3C[C@H](C4CC4)[C@@H](N)C3)c(C)s2)[nH]n1` | -4.027 | -2.512 | 4.089 |
| `Cc1nn(-c2ccccc2)cc1C(=O)N1CCCC(n2ccnc2)C1` (stereo not shown) | -6.853 | 2.611 | -20.79 |
| `Nc1cccc(-c2cccc3ccnn23)n1` | 0.4938 | 4.657 | -64.08 |
| `CSCC[C@H](NC(C)=O)c1nc(CCc2ccccc2)n[nH]1` | -5.596 | -9.221 | 10.79 |
| `Cn1cc(N2CCC3(CCN(Cc4cccnc4)C3)C2=O)cn1` (stereo not shown) | 2.528 | 10.8 | -8.134 |
| `O=C(C1CCOCC1)N1CCO[C@@H]2[C@@H](OCc3ccncc3)CC[C@@H]21` | 0.2766 | 4.762 | 0.6904 |
| `COC(=O)c1ccc(NC(=O)[C@@H]2CCCN2C(=O)c2ccco2)s1` | -1.385 | 7.298 | -3.108 |
| `O=c1[nH]nc(CNc2cncc(Br)c2)[nH]1` | 2.593 | 5.147 | -5.951 |
| `O=C(CC1CC1)N1Cc2nccn2CC(CN2CCCC2)C1` (stereo not shown) | 1.399 | 0.2538 | 7.736 |
| `COc1ccc2c(c1)OC1(CCN(Cc3ccc(F)cc3)CC1)CC2=O` | -3.435 | 4.353 | 7.554 |
| `CC(=O)N1CCN(c2ccccc2CNc2cc(F)cc(F)c2)CC1` | 3.152 | -5.578 | -3.728 |
| `COCCNC(=O)C1(c2ccccc2C)CCOCC1` | 0.07825 | 3.203 | 0.3607 |
| `CC(C)(C)Oc1ccc(NCC(=O)NCc2ccco2)cc1` | 1.377 | -3.89 | -12.87 |
| `COc1c(C2CCCN2C(=O)c2ccnc(C)n2)c(C)nn1C` (stereo not shown) | -5.016 | 5.483 | -22.85 |
| `CS(=O)(=O)N1CCc2ccc(=O)n(CC3CC3)c2CC1` | 2.47 | 6.947 | -0.9545 |
| `Cc1nc(Nc2ncccn2)cc(C2CCCN2Cc2ncc[nH]2)n1` (stereo not shown) | - | -4.116 | -1.948 |
| `CC(C)NC(=O)N1CCN(S(=O)(=O)C2CC2)CC2(CC(=O)N(C)C2)C1` (stereo not shown) | 2.315 | 2.155 | -2.422 |
| `Cc1cc(C(=O)N2CCN(Cc3ccsc3)CC2)n(C)n1` | -4.47 | 2.872 | -45.36 |
| `O=C(c1ccc(N2CCCC2)nn1)N1CCCC(n2cccn2)C1` (stereo not shown) | 2.827 | 0.1669 | -7.826 |
| `COC(=O)CC1CCCCN1CC(=O)Nc1ccc(F)cc1Cl` (stereo not shown) | 0 | -2.913 | -4.797 |
| `O=C(CC1CN(Cc2ccccc2)CCO1)NC1CCCC1` (stereo not shown) | 8.068 | 11.39 | -4.936 |
| `CCn1cc(NC(=O)N2CCN(C(=O)Oc3ccccc3)CC2)cn1` | -2.202 | 14.77 | 15.58 |
| `Nc1nccnc1C(=O)N1CCN(Cc2cccc3ccccc23)CC1` | 12.47 | 3.415 | -2.969 |
| `O=C(C1CCCN1c1ncnc2ccsc12)N1CCSCC1` (stereo not shown) | -2.249 | 2.269 | 1.92 |
| `CN(Cc1cccnc1)C1COC2(CCN(Cc3nccs3)CC2)C1` (stereo not shown) | -4.344 | 1.85 | -10.79 |
| `CCc1ncc2c(n1)CN(Cc1nc(-c3ccsc3)oc1C)CC2` | 0.09747 | 10.85 | -4.854 |
| `O=C1CC(C(=O)NCc2ccccc2Oc2ccccc2F)CCN1` (stereo not shown) | 2.839 | 10.1 | -1.032 |
| `CN(C)CCCC(=O)NC1CC(C)(C)Cc2nc(C(C)(C)C)ncc21` (stereo not shown) | 3.06 | 5.144 | -9.761 |
| `O=C1[C@H]2CN(C(=O)[C@H]3CCCO3)C[C@H]2CN1CCN1CCCC1` | -4.07 | 5.019 | -6.969 |
| `CCN(CC(=O)Nc1c(C)nn(C)c1C)CC(O)c1ccc(C)cc1` (stereo not shown) | -0.7452 | 14.91 | -6.77 |
| `O=C(CN1CCCCCC1)NCc1ccc2[nH]c(=O)[nH]c2c1` | -0.8683 | 2.112 | -10.27 |
| `COc1ccc(N(Cc2ccco2)C(=O)COC(C)C)cc1F` | -1.883 | 4.888 | 10.27 |
| `c1cnc(-c2nn3c(CN4CCOCC4)nnc3s2)cn1` | -0.1295 | -3.464 | 14.94 |
| `CN(C)C(=O)N1CCn2cc(CNC(=O)CC3CC3)nc2C1` | -5.021 | 3.299 | -8.001 |
| `CCOc1c(Br)cc(C2C3=C(COC3=O)Nc3[nH]nc(C)c32)cc1OC` (stereo not shown) | -1.273 | -7.495 | 6.282 |

For reference, 4 entries once more:

{"compound": "O=C(C1CCOCC1)N1CCO[C@@H]2[C@@H](OCc3ccncc3)CC[C@@H]21", "MtTrpRS": 0.2766, "CoaBC": 4.762, "ClpP1P2": 0.6904}
{"compound": "O=C1CC(C(=O)NCc2ccccc2Oc2ccccc2F)CCN1", "stereo": "stereo not shown", "MtTrpRS": 2.839, "CoaBC": 10.1, "ClpP1P2": -1.032}
{"compound": "CN(Cc1cccnc1)C1COC2(CCN(Cc3nccs3)CC2)C1", "stereo": "stereo not shown", "MtTrpRS": -4.344, "CoaBC": 1.85, "ClpP1P2": -10.79}
{"compound": "O=C1[C@H]2CN(C(=O)[C@H]3CCCO3)C[C@H]2CN1CCN1CCCC1", "MtTrpRS": -4.07, "CoaBC": 5.019, "ClpP1P2": -6.969}